Experimental data as given in publication PMC5474743.
No constants are given. Whether binding was seen depends on the method and setting. In cells and extracts the contact can be indirect.

Chains of the proteins cited; added tags and fusions are not shown. Residues count along the entry.
UniProt Q07817, residues 202-233: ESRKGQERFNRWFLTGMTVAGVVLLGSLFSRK
UniProt P63027, residues 84-116: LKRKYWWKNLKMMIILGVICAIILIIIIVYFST
UniProt Q92968, residues 136-233: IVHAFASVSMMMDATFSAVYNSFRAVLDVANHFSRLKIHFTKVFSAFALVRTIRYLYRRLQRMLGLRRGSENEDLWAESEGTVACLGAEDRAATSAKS
UniProt Q7Z434: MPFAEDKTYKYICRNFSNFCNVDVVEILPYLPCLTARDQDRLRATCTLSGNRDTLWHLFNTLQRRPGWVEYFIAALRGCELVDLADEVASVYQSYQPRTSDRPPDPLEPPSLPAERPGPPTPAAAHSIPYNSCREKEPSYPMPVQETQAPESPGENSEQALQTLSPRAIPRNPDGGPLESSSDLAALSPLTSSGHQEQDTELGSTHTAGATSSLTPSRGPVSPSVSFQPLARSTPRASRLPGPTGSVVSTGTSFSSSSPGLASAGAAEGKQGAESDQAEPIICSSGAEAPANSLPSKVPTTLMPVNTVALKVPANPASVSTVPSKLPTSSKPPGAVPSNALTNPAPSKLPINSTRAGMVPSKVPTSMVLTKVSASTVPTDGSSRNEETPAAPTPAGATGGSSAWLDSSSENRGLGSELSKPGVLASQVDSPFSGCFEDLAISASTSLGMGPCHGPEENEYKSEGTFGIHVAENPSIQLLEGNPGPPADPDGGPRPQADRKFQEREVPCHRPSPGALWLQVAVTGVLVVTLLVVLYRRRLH

What was measured:
Assay in all cases: co-IP; HEK293T co-transfected with pcDNA3-HA-MAVS and Flag-tagged constructs, 36 h; lysis in HEPES 20 mM pH 7.5, NaCl 150 mM, Triton X-100 1%, DTT 1 mM; anti-flag M2 affinity gel, 4 °C, 4 h; immunoblotting (Fig. 2d, 3b)
Flag-SUMO-Bcl-xL-TM = Flag-SUMO-Bcl-xL-TM (UniProt Q07817)
Flag-SUMO-VAMP-2-TM = Flag-SUMO-VAMP-2-TM (UniProt P63027)
Flag-SUMO-Pex13-TM = Flag-SUMO-Pex13-TM (UniProt Q92968)

Measured: binding

HA-tagged full-length MAVS (from UniProt Q7Z434 1-540)
no binding: all assays above
